Data taken from ChEMBL document CHEMBL3988442, “University of Dundee, Small-Polar-MMV Screening Library” (2021).

Amino acid sequences for entries named in this document (tags omitted).
UniProt P9WPC5, whole entry: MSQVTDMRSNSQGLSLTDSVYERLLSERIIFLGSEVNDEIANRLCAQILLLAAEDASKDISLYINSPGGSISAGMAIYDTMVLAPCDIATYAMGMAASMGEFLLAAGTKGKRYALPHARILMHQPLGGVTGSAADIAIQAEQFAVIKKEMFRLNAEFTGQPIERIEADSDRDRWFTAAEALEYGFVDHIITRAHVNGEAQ
UniProt P9WPC3, whole entry partner: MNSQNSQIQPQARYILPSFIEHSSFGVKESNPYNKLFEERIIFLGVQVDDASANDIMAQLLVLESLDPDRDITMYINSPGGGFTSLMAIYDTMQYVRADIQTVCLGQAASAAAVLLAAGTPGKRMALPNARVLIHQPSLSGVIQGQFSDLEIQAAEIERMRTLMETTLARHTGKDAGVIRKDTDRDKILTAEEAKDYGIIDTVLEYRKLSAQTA

Toxoplasma: 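Assay of Toxoplasma gondii numbers, read through their beta-galactosidase reporter with a colour substrate. Concentration: 10 µM. The record gives no direction; the compounds picked for IC50 retests had high values, so higher reads as fewer parasites. Of about 67,000 compounds tested this way, about 260 (0.38%) reached 50% or more in at least one test.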
ClpP1P2: 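ClpP1P2, Mycobacterium tuberculosis (UniProt P9WPC5 and UniProt P9WPC3). Protease assay of ClpP1P2, read by the AMC dye that it sets free. Concentration: 50 µM. Direction is inferred from only a few compounds that gave an IC50; most scored high, so higher reads as stronger inhibition. Most other retested compounds had strongly negative values. About 69,000 compounds were tested under these conditions; 0.015% (about 10) showed 50% or more at least once.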
Leishmania in macrophages: 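Cell assay of Leishmania donovani living inside macrophages; the read-out is not stated. Compounds at 30 µM. Direction is inferred from retests: higher values go with stronger inhibition. About 69,000 compounds were tested under these conditions; 1.5% (about 1,000) showed 50% or more at least once.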
T. brucei: 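Whole-parasite assay of Trypanosoma brucei over 72 hours; the read-out is not stated. Tested at 30 µM. The record gives no direction; compounds that gave an IC50 in retests scored well above the rest, so higher reads as stronger inhibition. Values scatter widely below zero; nearly all retest evidence comes from the higher of the two concentrations used. About 64,000 compounds were tested under these conditions; 1.5% (about 940) showed 50% or more at least once.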

Each number is a percent effect as filed.
The controls that fix the scale are not given in the record; negative values are as filed.
This is an unselected part of the compounds tested.
Two or more numbers in one place are separate tests of the same structure; such repeats can differ widely.
A dash means the value is not listed here; it may have been measured.

| # | compound | Toxoplasma | ClpP1P2 | Leishmania in macrophages | T. brucei |
|---|---|---|---|---|---|
| 1 | `Cc1ccc(-c2n[nH]cc2CN(Cc2nccn2C)C(C)C)cc1C` | 2.265% | -3.626% | 14.39% | -39.5% |
| 2 | `CN(C)c1cccc(C(=O)N2CCc3ccc(=O)[nH]c3CC2)c1` | -1.831% | 5.581% | 20.81% | -51.83% |
| 3 | `CCN(C(=O)c1cccc2c1OCO2)c1ccc(Br)cn1` | 14.13% | -24.01% | -3.057% | -0.1505% |
| 4 | `CC(=O)N1CCN(CCNS(=O)(=O)c2ccc(F)c(F)c2)CC1` | 19.43% | 4.267% | 45.81% | -5.79% |
| 5 | `O=C(Cn1cnnn1)NC(c1ccccc1)c1ccc2c(c1)CCCO2` (centres unmarked) | 7.49% | -4.622% | 3.765% | - |
| 6 | `Cc1nc(C)n(CC2CCCCN2CC(=O)N(C)Cc2ccco2)n1` (centres unmarked) | -13.53% | 3.214% | -21.23% | -27.06% |
| 7 | `CCCN1CCN(C(=O)Nc2ccccc2Cl)[C@H]2CS(=O)(=O)C[C@H]21` | - | 7.939% | - | - |
| 8 | `c1cnc(N2CCCC(NCc3cccc4c3OCCO4)C2)nc1` (centres unmarked) | - | 2.202% | - | - |
| 9 | `COC(=O)C(NC(=O)Nc1ccc(C(C)=O)cc1)C(C)C` (centres unmarked) | 22.59% | -12.84% | -28.78% | 1.304% |
| 10 | `COc1ccccc1OC1CN(C(=O)C2CNCC(=O)N2)C1` (centres unmarked) | -4.452% | -0.8489% | 24.25% | -22.61% |
| 11 | `Cc1ccc2nc(C3CCCN3Cc3scnc3C)[nH]c2c1` (centres unmarked) | 3.144% | -4.764% | 25.37% | -2.28% |
| 12 | `Cc1ccccc1N1CCCN(c2ccncn2)CC1` | 2.616% | -16.45% | 25.74% | -76.21% |
| 13 | `Cc1cc2n(n1)CC(CNCc1ccc(-n3cccn3)cc1)CN2` (centres unmarked) | 1.658% | -16.67% | 33.85% | 26.47% |
| 14 | `COC(=O)CC(c1ccc(OC)c(OC)c1OC)c1c(O)n[nH]c1C` (centres unmarked) | 6.19% | -8.862% | 9.384% | 13.4% |
| 15 | `CC(C)c1noc(C2CCCN2S(=O)(=O)N2CCCCCC2)n1` (centres unmarked) | -5.75% | 5.739% | 20.02% | -39.76% |
| 16 | `COc1nccnc1-c1cccc(-c2ccn(CC3COCCO3)n2)c1` (centres unmarked) | 5.192% | 0.6295% | 24.84% | -88.73% |
| 17 | `CCc1nnc2n1CCN(C(=O)c1ccc3c(c1)[nH]c(=O)n3C)C2` | -5.95% | -19.69% | 11.7% | 14.17% |
| 18 | `O=C(C1CCCCC1)N1CCCC2(CCN(c3cnccn3)CC2)C1.O=C(O)C(F)(F)F` | -2.378% | - | 9.047% | -13.42% |
| 19 | `O=C(O)C(F)(F)F.O=C(O)C(F)(F)F.O=C(O)C(F)(F)F.[H][C@@]12CN(Cc3ccco3)C[C@]1([H])[C@H](OC)CCN2Cc1ccccn1` | 93.58% | - | 23.55% | -7.02% |
| 20 | `CCn1nnc2c1C(COC)CN(Cc1cccs1)C2.O=C(O)C(F)(F)F` (centres unmarked) | 12.49% | - | 7.735% | 5.091% |
| 21 | `Cc1nccn1-c1cc(CNC(=O)COCC2CC2)ccn1` | 4.871% | -11.39% | 29.31% | -45.74% |
| 22 | `Cc1cc2nc(SCC(=O)N3CCCCC3)n(C)c(=O)c2[nH]1` | 3.664% | 12.46% | 8.353% & 13.96% | -52.2% |
| 23 | `Cc1ccc(NC2CCN(C(=O)c3ccc(C#N)cc3)CC2)nn1` | -22.43% | 8.11% | 27.12% | -2.79% |
| 24 | `O=C1N(CC2CCCCC2)CCCC1(O)CN1CCc2[nH]ncc2C1` (centres unmarked) | 1.366% | 0.0913% | -20.87% | -25.88% |
| 25 | `Cc1cc(N2CCCC(c3nncn3C3CC3)C2)ncn1` (centres unmarked) | -3.885% | -12.02% | -1.128% | 9.243% |
| 26 | `CCc1cc(N2C[C@H](C3CC3)[C@@H](N)C2)nc(N2CCOCC2)n1` | 4.777% | -21.5% | 29.17% | -22.85% |
| 27 | `COc1ccc(CNC(C)Cn2cccn2)c(OC)c1OC.Cl` (centres unmarked) | 4.615% | - | 33.41% | 4.713% |
| 28 | `Cc1ccccc1C(=O)NC(C)c1cnn(C)c1` (centres unmarked) | -1.008% | -3.642% | 27.37% | -22.57% |
| 29 | `CCNc1ncc(C(=O)NCc2ccc3nsnc3c2)cn1` | 2.162% | 8.573% | 30.54% | -29.96% |
| 30 | `CSCC(=O)N1CCc2nc(C)nc(NCc3ccccc3)c2CC1` | 13.91% | -3.768% | -47.94% | -9.063% |
| 31 | `Cc1cccnc1NC(=O)C1CSc2ncc(C)c(=O)n2C1` (centres unmarked) | -0.8355% | -8.474% | -16.03% & 22.16% | -4.345% |
| 32 | `CSCC(C)(O)CNC(=O)c1ccc(Br)cc1F` (centres unmarked) | 0.1595% | -7.862% | 17.29% | 9.669% |
| 33 | `CC(C)N1[C@H](CN2CCCC2)C[C@@H]2CN(Cc3cnn(C)c3)CC[C@@H]21` | - | -1.546% | - | - |
| 34 | `O=C(O)C(F)(F)F.O=C(O)C(F)(F)F.[H][C@@]12CCCO[C@]1([H])[C@H](NC(=O)CC1CC1)CN(Cc1cccnc1)C2` | 3.944% | - | 6.625% | -13.32% |
| 35 | `Cc1ccc(CN2CCC3(CCCN(C(=O)N(C)C)C3)C2)cc1` (centres unmarked) | -11% | 4.426% | 10.25% | - |
| 36 | `[H][C@@]12CCN(C(=O)c3ccsc3)C[C@@]1([H])O[C@H](c1nnc(C3CC3)o1)C2` | 4.545% | - | 6.97% | 14.07% |
| 37 | `Nc1ccc(-c2cc(O)cc(CCC3CCCCN3)c2)cn1` (centres unmarked) | -0.634% | -6.815% | 30.15% | 10.79% |
| 38 | `[H][C@]12CCN(c3ncc(F)cn3)C[C@@]1([H])OCCN(C(=O)c1ccco1)C2` | -13.04% | - | 8.318% & -2.045% | -36.49% |
| 39 | `CC(C)CC(=O)NCC(O)c1c(F)cccc1F` (centres unmarked) | 3.167% | -3.425% | 4.576% | -21.21% |
| 40 | `Cc1ccc(C2CCCN2S(=O)(=O)N(C)Cc2cnn(C)c2)o1` (centres unmarked) | -12.12% | -5.074% | -0.6676% | -18.71% |
| 41 | `O=C(NCC1CCS(=O)(=O)C1)Nc1ccccn1` (centres unmarked) | 7.729% | 6.642% | -11.48% | -50.78% |
| 42 | `Cc1cc(C(=O)N2CCCC(n3cncn3)C2)nn1C` (centres unmarked) | 14.46% | -6.709% | 21.92% | 11.18% |
| 43 | `O=C(N1CCCC1)N1CCN(Cc2cccnc2)c2ncccc2C1` | - | -6.269% | - | - |
| 44 | `O=C(NCCc1nnc2n1CCC2)NCC1(c2ccccc2)CC1` | -2.852% | -7.178% | -2.682% | 3.515% |
| 45 | `CCCN1CCC(CNC(=O)C2(c3ccccc3)CCC2)C1` (centres unmarked) | 10.45% | -13.62% | 13% | 4.02% |
| 46 | `Cc1ccc(CN2CCC3(CCCN3S(C)(=O)=O)CC2)s1.O=C(O)C(F)(F)F` | 15.33% | - | 21.5% | -4.544% |
| 47 | `[H][C@]12CC[C@]([H])(CN(C(=O)Cc3ccc(O)c(Cl)c3)C1)N(CCOC)C2=O` | 0.7572% | - | -32.26% | -84.72% |
| 48 | `O=C(O)C(F)(F)F.[H][C@@]12CCN(c3nncs3)C[C@@]1([H])O[C@@H](C(=O)NCCOC)C2` | -2.245% | - | 5.247% | 50.75% |
| 49 | `CC1=N[C@@]2(CC[C@@H]3CN(CC(=O)N(C)C)C[C@@H]32)C(=O)N1CC1CC1` | - | 5.604% | - | - |

The first 3 entries again:

{"compound": "Cc1ccc(-c2n[nH]cc2CN(Cc2nccn2C)C(C)C)cc1C", "Toxoplasma": 2.265, "ClpP1P2": -3.626, "Leishmania in macrophages": 14.39, "T. brucei": -39.5}
{"compound": "CN(C)c1cccc(C(=O)N2CCc3ccc(=O)[nH]c3CC2)c1", "Toxoplasma": -1.831, "ClpP1P2": 5.581, "Leishmania in macrophages": 20.81, "T. brucei": -51.83}
{"compound": "CCN(C(=O)c1cccc2c1OCO2)c1ccc(Br)cn1", "Toxoplasma": 14.13, "ClpP1P2": -24.01, "Leishmania in macrophages": -3.057, "T. brucei": -0.1505}